Test results from article PMC10896979.
These are yes or no findings as the source states them, for the method shown. Binding seen in cells or lysates may run through a third protein. Binding can be weak; no strength is given. For some assays here: Tags and fused reporters may be left off the sequences shown.

Sequences of proteins named here, by UniProt entry; tags and fusion partners are left off. A change or cut given only in a name is not applied to a line headed by its entry.
UniProt O35116: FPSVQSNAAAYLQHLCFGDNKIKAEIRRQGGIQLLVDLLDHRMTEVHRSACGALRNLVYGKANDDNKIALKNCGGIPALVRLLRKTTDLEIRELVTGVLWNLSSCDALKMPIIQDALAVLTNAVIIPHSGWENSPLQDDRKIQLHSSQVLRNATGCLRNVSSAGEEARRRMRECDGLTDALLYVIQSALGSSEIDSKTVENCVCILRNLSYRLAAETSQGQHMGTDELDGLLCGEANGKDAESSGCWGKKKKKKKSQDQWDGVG

Columns and labels:
[1] = biological target: T1, Pdlim5 (endogenous, rat primary neurons) (rat (endogenous in rat primary neurons)) (UniProt Q62920); experiment: proximity ligation; endogenous proteins in rat primary hippocampal neurons fixed at DIV4; Duolink PLA kit; puncta counted in processes
T1 sequence: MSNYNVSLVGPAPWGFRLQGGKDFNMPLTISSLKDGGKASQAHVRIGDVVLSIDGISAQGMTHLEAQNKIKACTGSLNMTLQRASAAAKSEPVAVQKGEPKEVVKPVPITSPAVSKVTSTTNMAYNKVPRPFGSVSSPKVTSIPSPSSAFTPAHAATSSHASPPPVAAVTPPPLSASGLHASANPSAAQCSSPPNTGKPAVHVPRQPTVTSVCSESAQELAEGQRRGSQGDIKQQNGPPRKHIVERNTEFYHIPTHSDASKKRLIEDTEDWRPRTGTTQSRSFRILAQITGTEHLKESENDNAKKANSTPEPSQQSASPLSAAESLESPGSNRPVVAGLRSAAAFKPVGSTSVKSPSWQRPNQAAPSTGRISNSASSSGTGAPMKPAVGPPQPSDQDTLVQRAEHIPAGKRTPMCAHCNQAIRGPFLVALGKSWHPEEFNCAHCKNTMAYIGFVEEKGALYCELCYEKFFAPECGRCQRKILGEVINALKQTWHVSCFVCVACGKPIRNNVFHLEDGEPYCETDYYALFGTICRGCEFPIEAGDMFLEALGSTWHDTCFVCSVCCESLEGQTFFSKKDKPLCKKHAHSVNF

[2] = biological target: T2, PalmD-GFP (UniProt Q9NP74); experiment: co-IP; exogenous epitope-tagged constructs co-transfected in HEK293 cells, lysed 24-48 h later; Protein-A and Protein-G Dynabeads, 4°C
T2 sequence: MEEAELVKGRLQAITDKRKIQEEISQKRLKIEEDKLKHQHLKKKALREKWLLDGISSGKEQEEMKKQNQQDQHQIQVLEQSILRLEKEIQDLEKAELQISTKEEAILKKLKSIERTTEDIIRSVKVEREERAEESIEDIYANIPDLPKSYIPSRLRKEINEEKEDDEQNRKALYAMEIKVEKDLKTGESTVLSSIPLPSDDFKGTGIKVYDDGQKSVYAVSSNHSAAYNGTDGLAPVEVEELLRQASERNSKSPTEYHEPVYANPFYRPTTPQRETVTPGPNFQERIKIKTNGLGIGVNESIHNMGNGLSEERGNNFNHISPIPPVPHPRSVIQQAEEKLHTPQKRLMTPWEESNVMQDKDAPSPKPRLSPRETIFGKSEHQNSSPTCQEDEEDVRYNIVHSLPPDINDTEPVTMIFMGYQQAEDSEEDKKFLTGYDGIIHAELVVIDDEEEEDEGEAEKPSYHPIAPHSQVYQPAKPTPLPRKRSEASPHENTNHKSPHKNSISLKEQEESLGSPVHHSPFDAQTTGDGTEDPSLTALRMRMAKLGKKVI

binding [1] | binding [2] | Substance
binds |  | delta-catenin (endogenous, rat primary hippocampal neurons) (from UniProt O35116)
 | binds | Pdlim5_isolated LIM domain (from UniProt Q62920) (domain or fragment)
